Laboratory results published in patent publication US6562115B2, “Azo dyes and their preparation and use” (Ilford Imaging Switzerland GmbH, priority 2000, dated 2003).

Assay: Color coordinates (L*a*b*) of ink jet printed samples
Conditions: illuminant D65; for L* value (material 2) / a* value (material 2) / b* value (material 2): printed ink on Ilfojet Photo Grade Clear Film UMCF4 (material 2); for L* value (material 1) / a* value (material 1) / b* value (material 1): printed ink on Ilfojet Photo Grade Glossy RC Paper UM2GP6 (material 1)

Compound | L* value (material 2) | a* value (material 2) | b* value (material 2) | L* value (material 1) | a* value (material 1) | b* value (material 1)
Nc1ccc2cc(S(=O)(=O)[O-])cc(O)c2c1N=Nc1ccc(NC(=O)CCC(=O)[O-])cc1S(=O)(=O)[O-].[Na+].[Na+].[Na+] [Compound 100] | 49.6 | 81.8 | 1.2 | 45.4 | 75.2 | 12.7
Nc1ccc2cc(S(=O)(=O)[O-])cc(O)c2c1N=Nc1ccc(NC(=O)CCCC(=O)[O-])cc1S(=O)(=O)[O-].[Na+].[Na+].[Na+] [Compound 101] | 49.5 | 83.0 | −0.5 | 45.7 | 75.8 | 12.0
Cc1cc(N=Nc2c(N)ccc3cc(S(=O)(=O)[O-])cc(O)c23)c(S(=O)(=O)[O-])cc1NC(=O)CCC(=O)[O-].[Na+].[Na+].[Na+] [Compound 102] | 49.1 | 80.7 | 10.2 | 44.9 | 73.3 | 17.9
Cc1cc(N=Nc2c(N)ccc3cc(S(=O)(=O)[O-])cc(O)c23)c(S(=O)(=O)[O-])cc1NC(=O)CCCC(=O)[O-].[Na+].[Na+].[Na+] [Compound 103] | 50.1 | 80.2 | 6.9 | 46.5 | 72.4 | 15.9
Nc1ccc2cc(S(=O)(=O)[O-])cc(O)c2c1N=Nc1ccc(NC(=O)COCC(=O)[O-])cc1S(=O)(=O)[O-].[Na+].[Na+].[Na+] [Compound 104] | 48.4 | 83.2 | 2.1 | 46.6 | 74.0 | 9.6
CNc1ccc2cc(S(=O)(=O)[O-])cc(O)c2c1N=Nc1ccc(NC(=O)C=CC(=O)[O-])cc1S(=O)(=O)[O-].[Na+].[Na+].[Na+] [Compound 112] | 53.3 | 79.9 | 12.7 | 48.6 | 74.7 | 24.3
Nc1ccc2cc(S(=O)(=O)[O-])cc(O)c2c1N=Nc1cc(NC(=O)CCC(=O)[O-])ccc1S(=O)(=O)[O-].[Na+].[Na+].[Na+] [Compound 120] | 51.7 | 75.3 | 26.8 | 46.5 | 69.5 | 31.2
Nc1ccc2cc(S(=O)(=O)[O-])cc(O)c2c1N=Nc1cc(NC(=O)CCCC(=O)[O-])ccc1S(=O)(=O)[O-].[Na+].[Na+].[Na+] [Compound 121] | 52.9 | 76.5 | 24.5 | 47.3 | 71.0 | 31.6
Nc1ccc2cc(S(=O)(=O)[O-])cc(O)c2c1N=Nc1ccc(Nc2nc(NCCS(=O)(=O)[O-])nc(NCCS(=O)(=O)[O-])n2)cc1S(=O)(=O)[O-].[Na+].[Na+].[Na+].[Na+] [II, reference compound] | 44.5 | 84.7 | −13.0 | 42.0 | 75.6 | −1.2
Acid Red 37 [reference compound] | 48.4 | 81.4 | 6.4 | 44.7 | 74.5 | 16.5
